Data reported in the M2OR odorant receptor database.
The entries are a selection whose mix differs from that of the whole data set. Calls are pooled over several reports, among them a noisy single-well screen. Some of the results follow.

Key:
Conditions in all cases: stereoisomer not certain
OR10C1 (Homo sapiens) = biological target: T1, OR10C1 (Homo sapiens) (UniProt Q96KK4)
T1 sequence (whole entry): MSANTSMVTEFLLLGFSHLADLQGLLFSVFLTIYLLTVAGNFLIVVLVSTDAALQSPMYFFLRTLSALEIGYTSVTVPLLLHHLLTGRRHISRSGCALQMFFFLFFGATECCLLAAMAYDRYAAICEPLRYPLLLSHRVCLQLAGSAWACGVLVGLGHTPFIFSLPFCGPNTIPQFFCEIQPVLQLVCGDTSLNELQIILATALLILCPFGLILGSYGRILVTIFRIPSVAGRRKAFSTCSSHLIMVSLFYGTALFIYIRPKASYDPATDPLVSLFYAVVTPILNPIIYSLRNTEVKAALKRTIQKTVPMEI
Method in brief: (§1)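 Transient luciferase assays in mammalian cell lines were common, though methods varied by source. The values come from published papers and their supplementary material, with extra details from the original authors when needed. Responsive refers to a measured signal the original authors judged statistically different from baseline, and non-responsive (inactive) to the remainder.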

OR10G6 (Homo sapiens) = biological target: T2, OR10G6 (Homo sapiens) (UniProt Q8NH81)
T2 sequence (whole entry): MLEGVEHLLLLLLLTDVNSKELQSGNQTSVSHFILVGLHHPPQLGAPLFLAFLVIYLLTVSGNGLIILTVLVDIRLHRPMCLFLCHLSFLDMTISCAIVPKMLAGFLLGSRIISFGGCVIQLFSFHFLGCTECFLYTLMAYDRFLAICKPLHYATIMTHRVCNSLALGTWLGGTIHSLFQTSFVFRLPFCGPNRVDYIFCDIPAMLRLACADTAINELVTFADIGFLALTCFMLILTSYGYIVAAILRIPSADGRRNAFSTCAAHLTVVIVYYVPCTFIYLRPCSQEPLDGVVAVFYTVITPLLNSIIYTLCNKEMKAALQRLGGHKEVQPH
Method in brief: as §1

OR10G7 (Homo sapiens) = biological target: T3, OR10G7 (Homo sapiens) (UniProt Q8NGN6)
T3 sequence (whole entry): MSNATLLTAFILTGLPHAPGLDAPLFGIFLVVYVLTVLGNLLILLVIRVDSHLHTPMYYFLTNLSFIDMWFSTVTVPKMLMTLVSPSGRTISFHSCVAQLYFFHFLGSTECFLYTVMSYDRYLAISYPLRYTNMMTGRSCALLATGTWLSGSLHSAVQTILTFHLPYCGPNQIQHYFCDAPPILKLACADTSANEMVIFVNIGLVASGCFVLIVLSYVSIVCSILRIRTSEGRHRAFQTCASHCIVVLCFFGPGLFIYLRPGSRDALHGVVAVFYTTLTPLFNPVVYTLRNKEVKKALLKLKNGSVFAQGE
Method in brief: as §1

OR10G8 (Homo sapiens) = biological target: T4, OR10G8 (Homo sapiens) (UniProt Q8NGN5)
T4 sequence (whole entry): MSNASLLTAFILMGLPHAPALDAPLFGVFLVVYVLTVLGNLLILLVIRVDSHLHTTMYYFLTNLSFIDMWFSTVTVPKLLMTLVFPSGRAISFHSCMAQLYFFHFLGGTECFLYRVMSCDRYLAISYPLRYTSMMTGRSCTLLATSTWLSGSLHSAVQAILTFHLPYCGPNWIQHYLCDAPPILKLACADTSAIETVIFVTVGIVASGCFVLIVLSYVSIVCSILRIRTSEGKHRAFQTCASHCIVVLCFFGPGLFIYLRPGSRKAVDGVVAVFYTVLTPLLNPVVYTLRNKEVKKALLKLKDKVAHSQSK
Method in brief: as §1

OR10H1 (Homo sapiens) = biological target: T5, OR10H1 (Homo sapiens) (UniProt Q9Y4A9)
T5 sequence (whole entry): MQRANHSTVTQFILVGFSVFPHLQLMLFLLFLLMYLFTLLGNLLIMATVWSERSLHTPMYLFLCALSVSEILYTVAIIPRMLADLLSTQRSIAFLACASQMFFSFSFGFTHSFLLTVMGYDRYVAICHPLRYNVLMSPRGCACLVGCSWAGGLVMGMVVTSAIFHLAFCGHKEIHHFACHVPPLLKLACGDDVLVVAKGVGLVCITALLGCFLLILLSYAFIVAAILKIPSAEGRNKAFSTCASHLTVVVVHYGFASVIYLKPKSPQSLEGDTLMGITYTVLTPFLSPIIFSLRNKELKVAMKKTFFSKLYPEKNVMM
Method in brief: as §1

OR10H3 (Homo sapiens) = biological target: T6, OR10H3 (Homo sapiens) (UniProt O60404)
T6 sequence (whole entry): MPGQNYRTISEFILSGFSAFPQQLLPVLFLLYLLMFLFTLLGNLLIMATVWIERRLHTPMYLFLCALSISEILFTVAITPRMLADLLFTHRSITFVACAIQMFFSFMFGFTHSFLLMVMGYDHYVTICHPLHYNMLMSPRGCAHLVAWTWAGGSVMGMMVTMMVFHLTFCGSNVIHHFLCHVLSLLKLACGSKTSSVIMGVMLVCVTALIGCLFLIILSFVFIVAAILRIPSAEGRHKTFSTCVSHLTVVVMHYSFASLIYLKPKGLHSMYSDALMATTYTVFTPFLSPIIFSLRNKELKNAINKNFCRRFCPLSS
Method in brief: as §1

OR10H4 (Homo sapiens) = biological target: T7, OR10H4 (Homo sapiens) (UniProt Q8NGA5)
T7 sequence (whole entry): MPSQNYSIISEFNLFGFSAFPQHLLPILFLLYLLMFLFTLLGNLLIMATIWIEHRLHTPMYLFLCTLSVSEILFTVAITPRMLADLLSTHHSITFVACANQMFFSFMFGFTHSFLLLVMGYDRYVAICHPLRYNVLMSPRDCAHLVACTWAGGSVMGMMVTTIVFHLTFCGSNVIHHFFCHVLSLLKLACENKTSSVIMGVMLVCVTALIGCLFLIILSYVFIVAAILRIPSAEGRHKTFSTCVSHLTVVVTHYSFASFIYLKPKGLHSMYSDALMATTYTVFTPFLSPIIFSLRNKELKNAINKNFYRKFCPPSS
Method in brief: as §1

OR10J5 (Homo sapiens) = biological target: T8, OR10J5 (Homo sapiens) (UniProt Q8NHC4)
T8 sequence (whole entry): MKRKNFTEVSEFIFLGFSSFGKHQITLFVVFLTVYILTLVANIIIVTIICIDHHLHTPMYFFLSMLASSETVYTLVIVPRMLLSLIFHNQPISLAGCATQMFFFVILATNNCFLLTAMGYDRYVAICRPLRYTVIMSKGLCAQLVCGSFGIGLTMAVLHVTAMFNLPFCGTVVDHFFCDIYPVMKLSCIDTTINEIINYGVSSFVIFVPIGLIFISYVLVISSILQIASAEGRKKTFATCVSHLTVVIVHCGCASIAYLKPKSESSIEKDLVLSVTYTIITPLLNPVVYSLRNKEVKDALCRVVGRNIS
Method in brief: as §1

OR10K1 (Homo sapiens) = biological target: T9, OR10K1 (Homo sapiens) (UniProt Q8NGX5)
T9 sequence (whole entry): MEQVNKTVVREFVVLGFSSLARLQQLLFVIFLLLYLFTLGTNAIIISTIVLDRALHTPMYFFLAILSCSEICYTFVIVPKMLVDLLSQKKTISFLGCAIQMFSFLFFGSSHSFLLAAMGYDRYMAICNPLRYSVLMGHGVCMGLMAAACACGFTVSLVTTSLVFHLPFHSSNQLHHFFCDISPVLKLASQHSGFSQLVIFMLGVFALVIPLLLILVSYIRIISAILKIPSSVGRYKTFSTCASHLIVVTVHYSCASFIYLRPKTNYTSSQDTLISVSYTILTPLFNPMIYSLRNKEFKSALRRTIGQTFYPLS
Method in brief: as §1

OR10K2 (Homo sapiens) = biological target: T10, OR10K2 (Homo sapiens) (UniProt Q6IF99)
T10 sequence (whole entry): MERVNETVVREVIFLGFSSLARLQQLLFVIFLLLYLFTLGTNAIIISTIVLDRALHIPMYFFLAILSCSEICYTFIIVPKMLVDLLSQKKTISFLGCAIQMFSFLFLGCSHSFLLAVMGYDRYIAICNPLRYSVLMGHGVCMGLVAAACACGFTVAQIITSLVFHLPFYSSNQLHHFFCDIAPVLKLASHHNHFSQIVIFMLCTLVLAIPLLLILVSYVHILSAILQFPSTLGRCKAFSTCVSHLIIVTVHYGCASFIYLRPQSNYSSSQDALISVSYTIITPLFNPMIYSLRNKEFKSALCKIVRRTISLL
Method in brief: as §1

## CS
OR10C1 (Homo sapiens)
  odorant receptor agonist call: inactive
OR10G6 (Homo sapiens)
  odorant receptor agonist call: inactive
OR10G7 (Homo sapiens)
  odorant receptor agonist call: active
OR10G8 (Homo sapiens)
  odorant receptor agonist call: inactive
OR10H1 (Homo sapiens)
  odorant receptor agonist call: inactive
OR10H3 (Homo sapiens)
  odorant receptor agonist call: inactive
OR10H4 (Homo sapiens)
  odorant receptor agonist call: inactive
OR10J5 (Homo sapiens)
  odorant receptor agonist call: inactive
OR10K1 (Homo sapiens)
  odorant receptor agonist call: inactive
OR10K2 (Homo sapiens)
  odorant receptor agonist call: inactive
